US10391098B2, “Antisense antibacterial compounds and methods” (priority 2014, dated 2019)

Tested on: E. coli SMS-3-5
Test: MIC of classical antibiotics with added PPMOs that target resistance genes
Assay type: cell-based
Conditions: Escherichia coli, SMS35; ampicillin alone
Excerpt: FIGS. 15A-15B show the minimum inhibitory concentration (MIC) of classical antibiotics with added PPMOs that target resistance genes in E. coli SMS-3-5. (FIG. 15A) MIC of ampicillin with blaT-(RXR)4XB (PPMO#66). (FIG. 15B) MIC of chloramphemicol with cmlA-(RXR)4XB (PPMO#67). N=3.
Minimal Inhibitory Concentration Assays.
Modulating antibiotic resistance with PPMOs could be an alternative therapeutic strategy. As proof of concept, PPMOs were designed to target specific, non-essential antibiotic resistance genes. blaT is part of the TEM beta-lactamase family and is found in environmental strains of E. coli, like SMS-3-5.

MIC: > 1020 µg/mL
Compound: CC1(C)S[C@@H]2[C@H](NC(=O)[C@H](N)c3ccccc3)C(=O)N2[C@H]1C(=O)O [ampicillin, reference compound]
